Measured values: publication PMC5997682
Results are given in words; binding and its absence hold for the method and conditions named. Binding can be weak; no strength is given. For some of these results: Tags and fused reporters may be left off the sequences shown. For some of these results: In cells and extracts the contact can be indirect.

Sequences of proteins named here, by UniProt entry; tags and fusion partners are left off. A change or cut given only in a name is not applied to a line headed by its entry.
UniProt A0A0H2Z644: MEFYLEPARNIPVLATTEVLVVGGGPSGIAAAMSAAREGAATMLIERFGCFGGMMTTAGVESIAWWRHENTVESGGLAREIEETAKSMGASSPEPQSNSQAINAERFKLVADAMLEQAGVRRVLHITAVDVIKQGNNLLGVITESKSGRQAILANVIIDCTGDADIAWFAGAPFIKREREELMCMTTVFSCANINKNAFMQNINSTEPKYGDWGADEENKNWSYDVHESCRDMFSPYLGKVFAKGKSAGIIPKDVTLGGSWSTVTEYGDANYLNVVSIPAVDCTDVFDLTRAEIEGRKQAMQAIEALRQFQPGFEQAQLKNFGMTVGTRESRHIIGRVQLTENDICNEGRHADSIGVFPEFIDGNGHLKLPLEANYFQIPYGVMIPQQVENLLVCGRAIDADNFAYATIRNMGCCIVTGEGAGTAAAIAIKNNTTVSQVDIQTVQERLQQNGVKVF

T1: GST-tagged Caspr1(203–355) peptide (human) (UniProt P78357)
T1 sequence: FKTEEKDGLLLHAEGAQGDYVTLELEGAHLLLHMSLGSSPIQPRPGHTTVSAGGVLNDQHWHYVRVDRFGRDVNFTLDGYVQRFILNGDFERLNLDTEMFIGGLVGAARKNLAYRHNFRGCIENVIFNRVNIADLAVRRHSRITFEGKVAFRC

B1: Caspr1(203–355), His-tagged, in vitro translated (domain or fragment, UniProt P78357 203-355)
chain: T1 sequence
B2: Caspr1(203–538), His-tagged, in vitro translated (domain or fragment, UniProt P78357 203-538)
chain: FKTEEKDGLLLHAEGAQGDYVTLELEGAHLLLHMSLGSSPIQPRPGHTTVSAGGVLNDQHWHYVRVDRFGRDVNFTLDGYVQRFILNGDFERLNLDTEMFIGGLVGAARKNLAYRHNFRGCIENVIFNRVNIADLAVRRHSRITFEGKVAFRCLDPVPHPINFGGPHNFVQVPGFPRRGRLAVSFRFRTWDLTGLLLFSRLGDGLGHVELTLSEGQVNVSIAQSGRKKLQFAAGYRLNDGFWHEVNFVAQENHAVISIDDVEGAEVRVSYPLLIRTGTSYFFGGCPKPASRWDCHSNQTAFHGCMELLKVDGQLVNLTLVEGRRLGFYAEVLFDTC
B3: Caspr1(203–538), His-tagged, expressed in HEK293T cells (domain or fragment, UniProt P78357 203-538)
chain: B2 chain
B4: His-tagged full-length Caspr1 (receptor, UniProt P78357 20-1384)
chain: WGYYGCDEELVGPLYARSLGASSYYSLLTAPRFARLHGISGWSPRIGDPNPWLQIDLMKKHRIRAVATQGSFNSWDWVTRYMLLYGDRVDSWTPFYQRGHNSTFFGNVNESAVVRHDLHFHFTARYIRIVPLAWNPRGKIGLRLGLYGCPYKADILYFDGDDAISYRFPRGVSRSLWDVFAFSFKTEEKDGLLLHAEGAQGDYVTLELEGAHLLLHMSLGSSPIQPRPGHTTVSAGGVLNDQHWHYVRVDRFGRDVNFTLDGYVQRFILNGDFERLNLDTEMFIGGLVGAARKNLAYRHNFRGCIENVIFNRVNIADLAVRRHSRITFEGKVAFRCLDPVPHPINFGGPHNFVQVPGFPRRGRLAVSFRFRTWDLTGLLLFSRLGDGLGHVELTLSEGQVNVSIAQSGRKKLQFAAGYRLNDGFWHEVNFVAQENHAVISIDDVEGAEVRVSYPLLIRTGTSYFFGGCPKPASRWDCHSNQTAFHGCMELLKVDGQLVNLTLVEGRRLGFYAEVLFDTCGITDRCSPNMCEHDGRCYQSWDDFICYCELTGYKGETCHTPLYKESCEAYRLSGKTSGNFTIDPDGSGPLKPFVVYCDIRENRAWTVVRHDRLWTTRVTGSSMERPFLGAIQYWNASWEEVSALANASQHCEQWIEFSCYNSRLLNTAGGYPYSFWIGRNEEQHFYWGGSQPGIQRCACGLDRSCVDPALYCNCDADQPQWRTDKGLLTFVDHLPVTQVVIGDTNRSTSEAQFFLRPLRCYGDRNSWNTISFHTGAALRFPPIRANHSLDVSFYFRTSAPSGVFLENMGGPYCQWRRPYVRVELNTSRDVVFAFDVGNGDENLTVHSDDFEFNDDEWHLVRAEINVKQARLRVDHRPWVLRPMPLQTYIWMEYDQPLYVGSAELKRRPFVGCLRAMRLNGVTLNLEGRANASEGTSPNCTGHCAHPRLPCFHGGRCVERYSYYTCDCDLTAFDGPYCNHDIGGFFEPGTWMRYNLQSALRSAAREFSHMLSRPVPGYEPGYIPGYDTPGYVPGYHGPGYRLPDYPRPGRPVPGYRGPVYNVTGEEVSFSFSTSSAPAVLLYVSSFVRDYMAVLIKDDGTLQLRYQLGTSPYVYQLTTRPVTDGQPHSINITRVYRNLFIQVDYFPLTEQKFSLLVDSQLDSPKALYLGRVMETGVIDPEIQRYNTPGFSGCLSGVRFNNVAPLKTHFRTPRPMTAELAEALRVQGELSESNCGAMPRLVSEVPPELDPWYLPPDFPYYHDEGWVAILLGFLVAFLLLGLVGMLVLFYLQNHRYKGSYHTNEPKAAHEYHPGSKPPLPTSGPAQVPTPTAAPNQAPASAPAPAPTPAPAPGPRDQNLPQILEESRSE
B5: endogenous Caspr1 in HBMECs (receptor, UniProt P78357 20-1384)
chain: B4 chain

Key:
[1] = molecular target: T1, GST-tagged Caspr1(203–355) peptide (human); assay: ELISA; MaxiSorp plates coated with GST-tagged Caspr1(203–355) (4 µg/well), blocked with 1% BSA, His-tagged IbeA applied 2 h at 37 °C then overnight at 4 °C; anti-His, HRP, TMB, read at 370 nm; both purified
GST-IbeA (E. coli) [2] = assay: pull-down; GST-IbeA or its GST-tagged truncated forms prebound to Glutathione Sepharose 4B, incubated overnight at 4 °C with in vitro translated (TNT) His-tagged Caspr1 fragments; blot with anti-His; only the target purified
[3] = molecular target: GST-tagged IbeA(229–342) (E. coli); assay: as above
GST-IbeA (E. coli) [4] = assay: pull-down; GST-IbeA prebound to Glutathione Sepharose 4B, incubated overnight at 4 °C with lysate of HEK293T cells transfected with His-tagged Caspr1 forms; binding buffer 20 mM Tris, 50 mM NaCl, 10% glycerol, 1% Nonidet P-40; blot with anti-His; only the target purified
GST-IbeA (E. coli) [5] = assay: pull-down; GST fusion proteins prebound to Glutathione Sepharose 4B, incubated overnight at 4 °C with HBMECs lysate; binding buffer 20 mM Tris, 50 mM NaCl, 10% glycerol, 1% Nonidet P-40; blot with Caspr1 antibody; only the target purified

Molecule	binding (GST-IbeA (E. coli) [2])	binding (GST-IbeA (E. coli) [4])	further results
recombinant His-tagged IbeA protein (from UniProt A0A0H2Z644)			binding [1]: binds
B1	binds		binding [3]: binds
B2	binds		
B3		binds	
B4		binds	
B5			binding (GST-IbeA (E. coli) [5]): binds
